The chains behind the UniProt entries cited, without tags or fusion partners.
UniProt G0YYQ5, entry or part of it: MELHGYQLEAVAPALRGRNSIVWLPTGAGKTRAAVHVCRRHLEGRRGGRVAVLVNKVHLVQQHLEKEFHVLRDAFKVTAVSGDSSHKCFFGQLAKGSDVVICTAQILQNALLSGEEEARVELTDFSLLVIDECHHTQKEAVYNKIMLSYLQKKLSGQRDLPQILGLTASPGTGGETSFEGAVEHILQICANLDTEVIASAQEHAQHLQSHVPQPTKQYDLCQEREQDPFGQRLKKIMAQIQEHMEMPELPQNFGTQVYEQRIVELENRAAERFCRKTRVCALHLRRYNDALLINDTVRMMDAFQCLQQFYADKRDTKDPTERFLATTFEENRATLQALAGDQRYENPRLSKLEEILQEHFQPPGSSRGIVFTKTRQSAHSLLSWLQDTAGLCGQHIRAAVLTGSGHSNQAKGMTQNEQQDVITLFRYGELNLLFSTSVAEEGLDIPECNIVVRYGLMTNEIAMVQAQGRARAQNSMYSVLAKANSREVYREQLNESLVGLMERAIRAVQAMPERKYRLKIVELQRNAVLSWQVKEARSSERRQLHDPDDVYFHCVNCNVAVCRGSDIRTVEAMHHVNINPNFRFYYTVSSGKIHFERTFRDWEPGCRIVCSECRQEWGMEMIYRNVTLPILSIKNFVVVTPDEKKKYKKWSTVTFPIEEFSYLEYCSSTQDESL

According to article PMC4885022, “Structural Analysis of dsRNA Binding to Anti-viral Pattern Recognition Receptors LGP2 and MDA5” (Molecular Cell, 2016):

Molecular target: chLGP2 (chicken) (UniProt G0YYQ5)
Assay: fluorescence anisotropy
Settings: Fluorescence anisotropy: 5'-FAM 12-mer annealed to unlabeled complement, protein titrated, ex 495 / em 515 nm, fit with Hill coefficient (n=1 for RIG-I); recombinant protein; residues 1-674; protein details: SUMO fusion; label: 5'-FAM on one strand

GGCCAGUGCGAA / CGCACUGGCCAA [3' overhang dsRNA (anisotropy)]
binding signal (fold lower affinity than blunt end): 2

For at least one entry, the source does not settle the construct or the ends of the probe. The direction of at least one scale is not stated here.
